This is an account of results in patent US20090196880A1 (VASGENE THERAPEUTICS, published 2009).

For the assay, the target named is T1, biotin-labeled soluble EphB4-HSA fusion protein (human) (UniProt P54760).
T1 sequence (chain, biotin-labeled (site not stated)): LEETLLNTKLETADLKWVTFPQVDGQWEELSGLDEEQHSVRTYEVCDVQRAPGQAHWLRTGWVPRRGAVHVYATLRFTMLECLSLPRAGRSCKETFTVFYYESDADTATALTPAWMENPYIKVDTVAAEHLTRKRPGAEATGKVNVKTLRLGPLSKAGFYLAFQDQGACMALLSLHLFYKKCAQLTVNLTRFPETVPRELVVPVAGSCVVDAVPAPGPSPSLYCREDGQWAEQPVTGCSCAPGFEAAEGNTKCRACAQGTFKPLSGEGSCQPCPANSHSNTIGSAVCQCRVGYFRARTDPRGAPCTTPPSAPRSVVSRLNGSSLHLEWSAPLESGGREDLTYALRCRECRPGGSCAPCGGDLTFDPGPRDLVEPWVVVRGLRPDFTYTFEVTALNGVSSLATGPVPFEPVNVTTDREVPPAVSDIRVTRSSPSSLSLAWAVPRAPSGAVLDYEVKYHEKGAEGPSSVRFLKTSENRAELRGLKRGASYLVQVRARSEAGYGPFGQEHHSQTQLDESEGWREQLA
The assay is described as follows: sandwich ELISA: NeutrAvidin plate, biotin-labeled soluble EphB4-HSA, detection with goat anti-human-Fc-HRP.

These are yes or no findings as the source states them, for the method shown. Some results given as binding are weak or reduced against the parent protein; the word gives no strength. Where a sequence is shown, tags or fusion partners need not be part of it.

B1: mouse monoclonal antibody #47 (antibody, V domains shown)
VH: EVQLQQSGPELVKPGASVKISCKASGYTFTDYYMNWVKQSHGKGLEWIGDNNPNNGGTTYNQKFKGKATLTVDKSSSTAYMELRSLTSEDSAVYYCARGKYYGTSYGWYFDVWGTGTTVTVSS
VL: DIQMTQSPASLSASVGETVTITCRISDNIDSYLAWFQQKQGKSPQLLVYDATVLADGVPSRFSGSGSGTQYSLKINSLQSEDAARYYCQVYYSIPWTFGGGTKLEIK
notes: also called m47; Mu #47
Regarding B1, the binding result is “binds”.

B2: deimmunized #47 variant antibody with heavy chain variable region SEQ ID NO:3 and light chain variable region SEQ ID NO:8 (antibody, human IgG1, V domains shown)
VH: EVQLVQSGAEVKKPGASVKISCKASGYTFTDYYMNWVKQAPGKGLEWIGDNNPNNGGTTYNQKFKGRATLTVDKSTSTAYMELSSLRSEDTAVYYCARGKYYGTSYGWYFDVWGQGTTVTVSS
VL: DIQMTQSPSSLSASVGDRVTITCRISDNIDSYLAWFQQKPGKAPKLLVYDATVLADGVPSRFSGSGSGTDYTLTINSLQAEDAATYYCQVYYSIPWTFGQGTKLEIK
Turning to B2, the binding entry is “binds”.

B3: mouse monoclonal antibody #131 (antibody, V domains shown)
VH: QVQLKQSGAELVKPGASVKISCKASGYTFTDYYINWVKQRPGQGLEWIGKIGPRIGTNYYNENFKGKATLTADISSNTAYMQLHTLTSEDSAVYFCARSEDYSGYVSYALDYWGQGTSVTVSS
VL: NIVMTQSPKSMSMSVGERVTLSCKASENVDTYVSWYQQKPDQSPELLIYGASNRYTGVPDRFTGSGSATDFTLTISSVQAEDLADYHCGQTYRYPFTFGGGTKLEIK
notes: also called m131
For the molecule B3, the binding result was “binds”.
